In assay [1] the target is microtubule-associated protein tau (mouse (endogenous in mouse brain)) (UniProt P10637). The experiment in a line: co-IP; precipitation with tau antibodies (Tau5, Tau1, 4RTau) from tau+/+ mouse brain extracts; 50 mM Tris-HCl, 150 mM NaCl, 1% NP-40; overnight at 4 C; magnetic protein G beads; washes with 150-250-450 mM NaCl; Western blot for SynGAP1.
The target is the same in assay [2]. The assay is described as follows: proximity ligation; Duolink, < 40 nm; primary tau+/+ neurons fixed at 21 DIV; mouse Tau5 and rabbit SynGAP1 antibodies.

Sequences of proteins named here, by UniProt entry; tags and fusion partners are left off. A change or cut given only in a name is not applied to a line headed by its entry.
UniProt P10637: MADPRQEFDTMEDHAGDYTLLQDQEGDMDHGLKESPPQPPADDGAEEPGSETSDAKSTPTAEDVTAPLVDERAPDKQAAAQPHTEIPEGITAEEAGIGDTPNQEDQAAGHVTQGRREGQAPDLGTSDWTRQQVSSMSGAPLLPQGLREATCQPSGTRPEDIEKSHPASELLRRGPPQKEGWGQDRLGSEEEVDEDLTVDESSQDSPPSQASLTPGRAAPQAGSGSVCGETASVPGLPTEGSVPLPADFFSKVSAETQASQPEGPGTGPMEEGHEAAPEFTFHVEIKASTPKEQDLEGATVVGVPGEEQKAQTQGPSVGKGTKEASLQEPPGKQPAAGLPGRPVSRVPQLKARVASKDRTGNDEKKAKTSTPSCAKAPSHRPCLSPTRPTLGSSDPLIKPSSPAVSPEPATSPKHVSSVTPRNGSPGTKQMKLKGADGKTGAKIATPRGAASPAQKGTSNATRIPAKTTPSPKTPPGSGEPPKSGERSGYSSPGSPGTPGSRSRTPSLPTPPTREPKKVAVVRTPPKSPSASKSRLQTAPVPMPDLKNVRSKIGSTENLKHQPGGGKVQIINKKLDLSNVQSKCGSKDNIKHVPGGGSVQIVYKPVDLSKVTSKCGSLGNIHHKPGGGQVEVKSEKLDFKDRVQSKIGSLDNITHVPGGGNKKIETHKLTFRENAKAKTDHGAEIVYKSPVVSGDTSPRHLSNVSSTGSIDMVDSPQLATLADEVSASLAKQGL

Binding data for one substance are collected here from paper PMC5589746.

These are yes or no findings as the source states them, for the method shown. Binding seen in cells or lysates may run through a third protein. A result given as binding can be weak or reduced; the word gives no strength.

Turning to SynGAP1 (from UniProt F6SEU4 1-1340), the binding result in assay [1] and in assay [2] was “binds” throughout.
